Molecules are shown by their SMILES. The list shows a part of the results. These are further read-outs of the screen, such as a control signal, another cell line or another target. No call is given for them. Most of these compounds were active or inconclusive in the main read-out, so they are no random draw. Potencies come from curve fits of mixed quality, noted in brackets.

This test is described as follows: qHTS Assay for Lipid Storage Modulators in Drosophila S3 Cells.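 For cell number change: cells counted by Cell Tracker Red CMTPX staining in the red channel.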 To be noted: BODIPY lipid droplet fluorescence, 18-24 h; for cell number change: measured here: cell count max response, cells fed with added oleic acid. The method in brief: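 Laser-scanning cytometry quantifies lipid droplet accumulation (500–530 nm total intensity; droplet/cell object ratio) in oleic acid-fed (400 uM added) Drosophila S3 cells treated with a concentration series. 20 uM Triacsin C defined 100% inhibition.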
On the technique in general: Quantitative high-throughput screening tests each substance at several concentrations.

Setting [1] is: measured here: cell number channel AC50, cells fed with added oleic acid.
The mark [2] stands for this setting: measured here: lipid fluorescence (Fed channel) AC50, cells fed with added oleic acid.

Take `O=C1CN(C(=O)COC(=O)CNS(=O)(=O)/C=C/c2ccccc2)c2ccccc2N1`: the half-maximal activity concentration (AC50) (commonly the concentration at which the activity in the assay is half-maximal) under setting [1] was 0.146 µM [rising, single point].
Turning to `O=C(CCl)NNc1nc(-c2ccccc2)c2cc(Cl)ccc2n1`, the cell number change was -22%. For the same compound, the AC50 under setting [2] is 23.1 µM [falling, partial curve].
Turning to `O=C(Cc1ccc(Br)cc1)Nc1ccc(S(=O)(=O)Nc2ncccn2)cc1`, the cell number change was -3.3%.
`CCCn1c(NC(=O)C2COc3ccccc3O2)nc2ccccc21` (configuration not stated): the AC50 under setting [1] is 3.66 µM [rising, single point].
As to `CC(=O)NS(=O)(=O)c1ccc(N=c2ssc3c2-c2cc(C)c(C)cc2NC3(C)C)cc1`, the cell number change was -12.8%. For the same compound, under setting [2], the AC50 is 4.11 µM [rising, partial curve].
As to `Cc1ccc(C)c(N2CCN(C(=O)C3CCCN(S(=O)(=O)c4c(C)noc4C)C3)CC2)c1` (configuration not stated), the cell number change came to 4.27%. In addition, the AC50 under setting [2] is 10.3 µM [falling, partial curve, poor fit].
For `CC(C)c1nnc(SCC(=O)Nc2ccc3c(c2)OCCO3)n1C`, the cell number change is 19.2%. Besides, under setting [2], the half-maximal activity concentration (AC50) is 29.1 µM [falling, single point].
In the case of `COc1ccc(C(C(=O)NC(C)(C)C)N(Cc2ccc(C)cc2)C(=O)CCC(=O)Nc2cc(C)on2)cc1` (configuration not stated), the cell number change is -31.4%. In addition, under setting [1], the AC50 was 29.1 µM [falling, partial curve, poor fit]. The half-maximal activity concentration (AC50) under setting [2] was 29.1 µM [falling, single point].
Turning to `Cc1ccc(Oc2nc(CN3CCOCC3)nc3sc4c(c23)CCC(C)C4)cc1` (configuration not stated), the cell number change was -43.5%. For the same compound, the half-maximal activity concentration (AC50) under setting [1] is 23.1 µM [falling, single point]. Further, the AC50 under setting [2] was 18.4 µM [falling, single point].
As to `CCN1CCN(c2ccc(NC(=O)c3ccco3)cc2Cl)CC1`, the cell number change came out at 13.5%. Also, the AC50 under setting [2] was 6.51 µM [falling, single point].
Take `CCOc1ccc2[nH]c(=O)c(C(c3nnnn3Cc3ccco3)N3CCN(C)CC3)cc2c1` (configuration not stated): the cell number change was -61%. Besides, the concentration at half-maximal activity (AC50) under setting [1] is 7.31 µM [falling, partial curve]. Under setting [2], the AC50 is 4.11 µM [falling, partial curve].
For `OCCN1CCN(C(c2cccs2)c2ccc3cccnc3c2O)CC1` (configuration not stated), the cell number change was -23.3%. Further, the AC50 under setting [2] was 1.16 µM [falling, full curve].
As for `COc1ccc(-c2ccc(S(=O)(=O)N3CCCC3)cc2)cc1`, the cell number change came to 3.28%.
Take `COc1ccc(CCC(=O)NCCc2ccc(OC)c(OC)c2)cc1`: the cell number change was 1.38%. Further, the half-maximal activity concentration (AC50) under setting [2] is 7.31 µM [falling, partial curve, poor fit].
Take `O=S(=O)(NCC1OCCc2ccccc21)c1ccc(S(=O)(=O)N2CCOCC2)cc1` (configuration not stated): the cell number change turned out to be 7.88%. The AC50 under setting [1] is 0.651 µM [falling, single point].
Turning to `CCC(Sc1ccccc1C(=O)O)C(=O)O` (configuration not stated), the cell number change is -29.5%. The AC50 under setting [2] was 29.1 µM [falling, single point].
With `COc1ccc(/C=N/NC(=O)c2cnccn2)cc1O`, the cell number change was found to be 111%. Under setting [1], the AC50 is 18.4 µM [rising, single point]. In addition, the AC50 under setting [2] is 0.0206 µM [falling, full curve, poor fit].
For `O=C(Cc1cccs1)NCCCc1ccccc1`, the cell number change was -18.4%. Under setting [2], the half-maximal activity concentration (AC50) is 2.59 µM [falling, partial curve].
For the compound `CC(C)c1nc(N2CCN(C(=O)c3ccco3)CC2)c2c3c(sc2n1)CCCC3`, the AC50 under setting [2] was 6.51 µM [rising, single point].
Turning to `COc1cc(/C=N/N=C(N)N)ccc1OCc1ccccc1Cl`, the cell number change is -64.6%. The half-maximal activity concentration (AC50) under setting [2] is 1.64 µM [rising, partial curve].
With `O=C(Nc1cccc([N+](=O)[O-])c1)c1cnccn1`, the cell number change came to 4.9%. For the same compound, the half-maximal activity concentration (AC50) under setting [2] was 0.146 µM [rising, full curve, poor fit].
As to `COC(=O)[C@@]12CCCCN1[C@H](c1ccc(-c3ccc(OC)cc3)cc1)[C@H]1C(=O)N(C)C(=O)[C@H]12`, the cell number change came to 26.5%. Under setting [2], the AC50 was 0.00517 µM [rising, full curve, poor fit].
As for `CN(CC(=O)Nc1cccc(S(=O)(=O)NC2=NCCC2)c1)Cc1ccccc1Cl`, the cell number change was -13.2%. In addition, the AC50 under setting [1] is 1.84 µM [rising, partial curve, poor fit]. In addition, under setting [2], the AC50 is 2.31 µM [rising, partial curve].
Turning to `Cc1ccccc1N/C(=N/S(=O)(=O)c1ccccc1)c1ccc(F)cc1`, the cell number change was -18.5%.
Consider `CC(=O)Nc1ccc(C(=O)COC(=O)C2CC2)c(F)c1`, for which the AC50 under setting [1] was 0.651 µM [rising, single point].
Take `COc1ccc([C@@H](OC)[C@@]2(Cc3ccc(O)cc3)N=C(N)N(C)C2=O)cc1`: the cell number change came to 20.7%. For the same compound, the AC50 under setting [2] was 25.9 µM [rising, single point].
For the compound `O=c1cc(C(F)(F)F)[nH]c(=O)n1C1CCCCC1`, the cell number change is -24.2%.
On the same count and under the same terms, then `COc1ccc(N2CCN(Cc3nc(N)nc(Nc4ccc(C)c(Cl)c4)n3)CC2)cc1`, with -34.4%.
Consider `c1ccc(C2CCC(N3CCN(c4ccccc4)CC3)CC2)cc1` (configuration not stated), for which the cell number change is -25.6%. The AC50 under setting [2] is 29.1 µM [falling, single point].
As to `O=C(NCCN1C(=O)S/C(=C\c2cccnc2)C1=O)c1cc(S(=O)(=O)N2CCOCC2)ccc1F`, the cell number change was -25.4%. The concentration at half-maximal activity (AC50) under setting [2] is 25.9 µM [falling, single point].
As to `COc1cccc(C(=O)NCC(c2cccs2)N2CCc3ccccc32)c1` (configuration not stated), the AC50 under setting [1] was 0.651 µM [rising, full curve, poor fit].
Consider `O=C(Nc1ccc2c(c1)OCO2)c1cccs1`, for which the cell number change was -13.2%. For the same compound, the half-maximal activity concentration (AC50) under setting [2] was 0.082 µM [rising, full curve, poor fit].
Regarding `Cc1ccc(C)c(C(=O)CCC(=O)N2CCN(c3ncccn3)CC2)c1`, the cell number change amounted to 17.2%. Moreover, the AC50 under setting [2] was 0.146 µM [rising, full curve, poor fit].
With `O=C(O)c1cc(=O)c2ccccc2o1`, the cell number change was found to be 27.2%. Further, the AC50 under setting [2] is 6.51 µM [rising, single point].
For `Cc1[nH]nc2c1C(c1ccc(-c3ccc(Cl)cc3)o1)C(C#N)=C(N)O2` (configuration not stated), the AC50 under setting [2] is 16.4 µM [falling, single point].
Turning to `C=CCSc1nnc2c(n1)[nH]c1c(C)cccc12`, the cell number change is -14%. Under setting [2], the AC50 was 1.46 µM [rising, full curve, poor fit].
In the case of `CCOc1ccc(-c2cc(CCCC(=O)Nc3cc(OC)ccc3OC)no2)cc1`, the cell number change was -8.65%. The concentration at half-maximal activity (AC50) under setting [2] is 20.6 µM [falling, single point].
In the case of `O=C(COc1ccc(F)cc1)N(c1ccccn1)C1CCCCC1`, the cell number change was -9.47%. In addition, under setting [2], the concentration at half-maximal activity (AC50) was 16.4 µM [falling, single point].
As to `Cc1ccc(-c2nc(NC(=O)CSc3cc(C)c4ccccc4n3)ns2)cc1`, the cell number change turned out to be 9.05%. In addition, under setting [2], the AC50 was 1.64 µM [rising, full curve, poor fit].
On to `CCOP(=O)(OCC)/C(C#N)=C/c1c[nH]c2ccccc12`, for which the cell number change amounted to 6.7%. In addition, the AC50 under setting [1] is 6.51 µM [falling, single point]. In addition, under setting [2], the half-maximal activity concentration (AC50) is 6.51 µM [falling, single point].
Turning to `O=C1CN(C(=O)c2cc([N+](=O)[O-])ccc2Cl)C(c2ccc(F)cc2)c2cc(F)ccc2N1` (configuration not stated), the cell number change is -43.5%. The AC50 under setting [1] is 0.291 µM [falling, full curve]. Besides, the AC50 under setting [2] was 1.64 µM [falling, partial curve].
For the compound `CCCCN(C)C(=O)c1cc2cc([N+](=O)[O-])cc(OC)c2oc1=O`, the cell number change turned out to be 36.6%. Further, the AC50 under setting [1] was 29.1 µM [rising, single point].
Take `Cc1cc(=O)oc2cc(OCC(=O)OC(C)C(=O)NC3CCCC3)ccc12` (configuration not stated): the cell number change is -53.6%. The AC50 under setting [1] is 29.1 µM [falling, single point]. In addition, the half-maximal activity concentration (AC50) under setting [2] is 6.51 µM [falling, partial curve].
`CCOC(=O)C(=NCCCN(C)C)NNc1cc(C(F)(F)F)ccc1Cl`: the cell number change turned out to be 22.2%. The concentration at half-maximal activity (AC50) under setting [2] is 5.17 µM [rising, full curve, poor fit].
Turning to `CN(Cc1nc2ccccc2c(=O)[nH]1)C(=O)c1ccccc1OCc1ccc(Cl)cc1`, the cell number change stood at 27.3%. Also, the half-maximal activity concentration (AC50) under setting [2] is 32.6 µM [rising, partial curve].
In the case of `COc1cc(OC)cc(-c2c(-c3cccs3)c3cc(-c4ccc(OC)cc4F)ccc3n2C)c1`, the cell number change was -3.16%. Besides, the half-maximal activity concentration (AC50) under setting [1] was 1.16 µM [rising, single point].
In the case of `Cc1cc2oc(=O)cc(CN3CCC(C)CC3)c2cc1Cl`, the cell number change was -16.1%. The concentration at half-maximal activity (AC50) under setting [2] was 2.31 µM [falling, partial curve].
In the case of `Cc1cccc(NC(=O)C(C)C(=O)c2ccccc2)c1` (configuration not stated), the cell number change is -22.5%.
Turning to `COc1ccc2c(c1)[C@H]1[C@H](CO2)[C@H](c2ccccc2)[C@]2(C)C(=O)N[C@@H](C)C(=O)N12`, the cell number change came to 18.3%. Further, the AC50 under setting [1] is 0.164 µM [rising, full curve, poor fit]. Under setting [2], the AC50 is 0.116 µM [rising, full curve, poor fit].
Turning to `Cc1ccc(C2CC(=O)Nc3sc(C(N)=O)c(N)c32)cc1` (configuration not stated), the cell number change is -8.16%.
For the compound `CCOCC(=O)Nc1cc(C(=O)Nc2cccc(C)c2C)ccc1Cl`, the cell number change was 95.1%. Also, under setting [1], the half-maximal activity concentration (AC50) was 29.1 µM [rising, single point].
Turning to `COc1ccc(S(=O)(=O)N2CCC(C(=O)Nc3cccc(Cl)c3)CC2)cc1OC`, the cell number change was found to be 13.6%.
Turning to `COc1ccc(S(=O)(=O)N2CCC(C(=O)NCc3ccccn3)CC2)cc1OC`, the cell number change was found to be 14.3%. Further, under setting [1], the half-maximal activity concentration (AC50) was 6.51 µM [rising, single point].
Take `COCC(C)N=Cc1c(O)[nH]c2ccccc12` (configuration not stated): the AC50 under setting [2] is 0.461 µM [rising, partial curve, poor fit].
For the compound `CC(C)CCNC(=O)c1ccccc1SCC(=O)NC1CCCCCCC1`, the cell number change was -11.1%. In addition, the AC50 under setting [2] is 0.326 µM [falling, full curve, poor fit].
As for `CCN(CC(=O)Nc1ccc(NC(C)=O)cc1)C(=O)c1c(-c2c(F)cccc2Cl)noc1C`, the cell number change amounted to 16.2%.
For `CCCCc1ccc(S(=O)(=O)Nc2cc(C)on2)cc1`, the AC50 under setting [2] is 0.58 µM [falling, single point].
Turning to `COc1ccc(/C=C/C(=O)NC(=S)NN2CCCCC2c2cccnc2)cc1` (configuration not stated), the cell number change was -6.17%. For the same compound, the concentration at half-maximal activity (AC50) under setting [2] is 0.366 µM [rising, single point].
Regarding `CCOc1ccc(N)cc1OC`, the cell number change worked out at 19.4%. Further, under setting [1], the half-maximal activity concentration (AC50) was 1.16 µM [rising, single point]. In addition, the half-maximal activity concentration (AC50) under setting [2] was 1.3 µM [rising, full curve].
Regarding `CN(CC(=O)Nc1ccc(F)cc1)C(=O)COC(=O)CCN1C(=O)C2CC=CCC2C1=O` (configuration not stated), the concentration at half-maximal activity (AC50) under setting [2] is 16.4 µM [rising, partial curve, poor fit].
